Paper PMC10384408, “Anticancer Tungstenocenes with a Diverse Set of (O,O–), (O,S–) and (O,N–) Chelates—A Detailed Biological Study Using an Improved Evaluation via 3D Spheroid Models” (Pharmaceutics, 2023)

Test system: HCT116 spheroids
Experiment: W distribution by LA-ICP-TOF-MS
Assay type: cell-based, human
Conditions: 10 µM, 48 and 72 h

F[P-](F)(F)(F)(F)F.[O-]c1c(-c2ccc(Cl)cc2)oc2ccccc2c1=S.[W+4].c1cc[cH-]c1.c1cc[cH-]c1 [Compound 4, Bis(η^5-cyclopentadienyl)[2-(4-chlorophenyl)-3-(oxo-κO)-4(H)-chromen-4-thionato-κS]tungsten(IV) hexafluorophosphate]
W distribution in spheroids: tungsten enrichment predominantly in the proliferating zone
